## Primary screen of a compound library

By UniProt entry, the sequences of proteins in these tests, tags left out. Residues count along the entry.
UniProt Q8IDJ8, 1-583: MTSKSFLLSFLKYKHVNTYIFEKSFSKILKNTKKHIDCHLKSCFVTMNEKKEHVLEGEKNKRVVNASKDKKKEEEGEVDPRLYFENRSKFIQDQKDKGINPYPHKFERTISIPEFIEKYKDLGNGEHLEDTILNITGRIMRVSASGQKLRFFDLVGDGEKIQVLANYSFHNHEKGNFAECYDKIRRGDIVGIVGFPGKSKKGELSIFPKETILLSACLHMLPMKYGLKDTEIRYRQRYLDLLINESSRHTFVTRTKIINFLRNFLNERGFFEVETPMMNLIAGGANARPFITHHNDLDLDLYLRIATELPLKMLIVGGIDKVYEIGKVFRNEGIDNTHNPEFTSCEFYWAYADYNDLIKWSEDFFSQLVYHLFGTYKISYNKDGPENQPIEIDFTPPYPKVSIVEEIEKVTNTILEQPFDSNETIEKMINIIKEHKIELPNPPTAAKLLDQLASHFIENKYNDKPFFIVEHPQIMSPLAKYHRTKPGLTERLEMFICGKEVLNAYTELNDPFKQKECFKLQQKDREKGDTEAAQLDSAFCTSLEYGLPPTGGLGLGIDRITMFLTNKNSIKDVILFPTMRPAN
UniProt A4I591, 1-473: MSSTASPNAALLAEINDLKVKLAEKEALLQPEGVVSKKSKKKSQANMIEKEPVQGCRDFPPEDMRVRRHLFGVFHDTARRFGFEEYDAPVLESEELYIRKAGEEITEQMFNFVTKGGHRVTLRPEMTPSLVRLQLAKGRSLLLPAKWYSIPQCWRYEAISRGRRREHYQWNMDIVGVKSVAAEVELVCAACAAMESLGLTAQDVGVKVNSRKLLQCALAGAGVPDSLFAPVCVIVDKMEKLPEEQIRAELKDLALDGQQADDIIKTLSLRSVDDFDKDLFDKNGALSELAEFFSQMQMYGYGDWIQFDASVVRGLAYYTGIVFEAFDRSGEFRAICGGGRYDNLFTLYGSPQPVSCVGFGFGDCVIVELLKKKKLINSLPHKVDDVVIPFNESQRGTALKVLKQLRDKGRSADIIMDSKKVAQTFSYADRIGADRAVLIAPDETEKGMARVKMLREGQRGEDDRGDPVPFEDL

From ChEMBL document CHEMBL3988442, “University of Dundee, Small-Polar-MMV Screening Library” (2021).

T. brucei: 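Whole-parasite assay of Trypanosoma brucei over 72 hours; the read-out is not stated. Tested at 30 µM. Higher reads as stronger inhibition (inferred: compounds with an IC50 in retests scored well above the rest). Values scatter widely below zero; nearly all retest evidence comes from the higher of the two concentrations used. Size under these conditions: about 64,000 compounds, about 940 of them at 50% or above in at least one test.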
PfKRS1: 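Enzyme assay of the cytosolic lysyl-tRNA synthetase in 384-well plates, read by luminescence. Target: Lysine-tRNA ligase, Plasmodium falciparum 3D7 (UniProt Q8IDJ8). Concentration: 30 µM. Direction is inferred from only a few compounds that gave an IC50; most scored high, so higher reads as stronger inhibition. Size under these conditions: about 69,000 compounds, about 49 of them at 50% or above in at least one test.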
LiHisRS: 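Histidine-tRNA ligase, Leishmania infantum (UniProt A4I591). Enzyme assay of histidyl-tRNA synthetase; the read-out is not stated. Concentration: 30 µM. The record gives no direction; compounds that gave an IC50 in retests scored well above the rest, so higher reads as stronger inhibition. The assay is labelled LdHisRS but filed under L. infantum. About 69,000 compounds were tested under these conditions; 0.6% (about 410) showed 50% or more at least once.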
Toxoplasma: 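Assay of Toxoplasma gondii numbers, read through their beta-galactosidase reporter with a colour substrate. Compounds at 10 µM. The record gives no direction; the compounds picked for IC50 retests had high values, so higher reads as fewer parasites. About 67,000 compounds were tested under these conditions; 0.38% (about 260) showed 50% or more at least once.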

The filed quantity is “Percent Effect” (%). The record does not define 0% and 100%; most values in the screen are far below 50% and negative numbers occur (in some assays of this library far below -100). This is an unselected part of the compounds tested. A dash means the value is not listed here; it may have been measured.

| SMILES | T. brucei | PfKRS1 | LiHisRS | Toxoplasma |
|---|---|---|---|---|
| `CCNC(=O)[C@@H]1C[C@@H](NC(=O)CSC)CN1Cc1ccncc1` | -6.464 | 2.817 | 10.39 | -30.69 |
| `O=C(O)C(F)(F)F.[H][C@]12CCCN(CC3CC3)[C@@]1([H])CN(C(=O)c1ccco1)C2` | -18.48 | - | - | 4.935 |
| `Cc1cc(Nc2ncccn2)nc(C2CCCN(CCO)C2)n1` (stereo not shown) | - | 0.4577 | 4.255 | -0.5168 |
| `COCCN1CCN(c2cccc(C)n2)Cc2ccc(C)nc21.O=C(O)C(F)(F)F.O=C(O)C(F)(F)F` | 60.56 | - | - | -4.645 |
| `CCCc1nc(N(C)CCc2noc(C(C)C)n2)c2cnn(C)c2n1` | -244.1 | -4.909 | 7.018 | -4 |
| `Cc1ccc(C(CNC(=O)c2c(C)noc2C(C)C)N(C)C)cc1` (stereo not shown) | -19.09 | 2.485 | 8.929 | -33.08 |
| `CS(=O)(=O)CCSCc1cc(F)cc2cccnc12` | -40.73 | -0.6001 | 1.205 | -12.55 |
| `Cc1nc(CN2CC3(CCN(c4ncccn4)C3)CC2=O)cs1.O=C(O)C(F)(F)F` (stereo not shown) | -28.21 | - | - | 2.876 |
| `COCCN1CCCC(c2ccnc3c(C(N)=O)cnn23)C1` (stereo not shown) | -2.475 | 0.9254 | 5.755 | 8.55 |
| `CN(C)CC(=O)N1CCC2(CCN(Cc3ccccn3)C2=O)C1` (stereo not shown) | -0.6992 | 1.852 | 7.843 | -26.77 |
| `COc1ncccc1C(=O)N1CC[C@]2(C[C@@H](Oc3cccnc3)CO2)C1` | - | 5.899 | 9.735 | - |
| `CC(=O)N1CCC(n2nccc2-c2cnc(NCCO)nc2)CC1` | -19.29 | 2.682 | 2.857 | -11.67 |
| `O=C(CN1CCCC1Cn1cncn1)NC(C1CC1)C1CC1` (stereo not shown) | -12.18 | -1.044 | 8.654 | -4.42 |
| `Cc1ncc(C(=O)NCCNc2ccncc2)s1` | -43.75 | 2.485 | 14.29 | 13.49 |
| `Cc1nn(C)c(C)c1CN(C)c1nc(C2CCCC2)nc2c1cnn2C` | -24.86 | -2.64 | 6.742 | 11.18 |
| `Cc1csc(CNC(=O)N(C)Cc2ccc([S+](C)[O-])cc2)n1` (stereo not shown) | -19.11 | 1.847 | 9.589 | 3.034 |
| `O=c1[nH]c(NCCO)nc2c1C1(CCCC1)Cc1ccccc1-2` | -67.36 | -4.051 | 0 | 19.62 |
| `CCCn1nnnc1COc1ccc(C(=O)OC)cc1` | -16.26 | -0.05446 | 4.878 | 8.149 |
| `Cc1ccc2nc(C(=O)N3CC(n4nc(C)cc4C)C3)cn2c1` | -76.84 | 5.081 | 7.843 | 9.854 |
| `CCC1=N[C@@]2(CC[C@@H]3CN(Cc4ccc(Cl)cc4)C[C@@H]32)C(=O)N1` | - | 2.829 | 3.008 | - |
| `CCCC(=O)NCCCn1ncc2c(C)cccc21` | -26.55 | -1.158 | 13.79 | 3.569 |
| `Cc1cc(C(=O)NCCN2CCC(C)CC2)nn1C(C)(C)C` | -12.42 | -4.005 | -8.434 | 9.251 |
| `CCC1(CC)CC(=O)N(CC(O)c2ccc(F)cc2)C1=O` (stereo not shown) | -55.97 | 1.864 | 11.67 | 7.9 |
| `Cc1[nH]ncc1C(=O)NCC(CO)Cc1ccc(Cl)cc1` (stereo not shown) | -1.777 | 8.009 | 17.2 | 4.661 |
| `Cc1ccc(C(=O)NCC(O)c2ccc(F)c(F)c2)c(=O)[nH]1` (stereo not shown) | -86.66 | 3.913 | 11.2 | -25.83 |
| `CC(C)Nc1ncnc2c1CCN(Cc1nccn1C)CC2` | - | -2.891 | 16 | - |
| `CCN(CCc1nccs1)C(=O)c1sccc1C` | -0.6739 | 3.191 | 3.175 | -5.712 |
| `NC(=O)c1ccc(C(=O)N2CCCCC2Cn2cccn2)s1` (stereo not shown) | -17.64 | -3.383 | 9.821 | -2.822 |
| `O=C(NCc1ccccn1)[C@@]12CCO[C@@H]1CCN(c1ncccn1)C2` | - | 2.972 | 15.45 | - |
| `O=C(O)C(F)(F)F.O=C(O)C(F)(F)F.O=C(O)C(F)(F)F.c1ccc(CN2CCc3nnc(COc4ccccn4)n3CC2)nc1` | 1.272 | - | - | -3.983 |
| `COc1ccc(COCC(O)CNC(=O)c2cc(C)no2)cc1` (stereo not shown) | -17.91 | 2.603 | 6.087 | -29.37 |
| `Cc1ccc(CN2CCC3(CCC3NS(=O)(=O)c3ccccc3)CC2)o1` (stereo not shown) | - | 4.182 | 5.172 | - |
| `CC(C)(Oc1ccc(C(N)=O)cc1)C(=O)N(CCC#N)CC1CCCO1` (stereo not shown) | -1.817 | 1.777 | -3.96 | 4.759 |
| `COc1cc(CO)c(OC)c2c1OCO2` | -5.642 | 1.381 | 18.33 | -8.929 |
| `CCn1nnc2c1CCN(S(C)(=O)=O)C2COCc1ccccc1` (stereo not shown) | -40.5 | 4.48 | 10.53 | -12.91 |
| `Cc1cc(F)c(S(=O)(=O)NCCCN2CCC(O)CC2)cc1F` | -39.16 | -7.638 | -2.83 | 3.892 |
| `CCC(CC)CNC(=O)N(C)C(C)c1ccccn1` (stereo not shown) | -12.18 | -4.24 | 12 | -8.753 |
| `Cc1cnc(CN(C)C2CCCN(c3cccnn3)C2)cn1` (stereo not shown) | -5.142 | 1.686 | 6.742 | 9.581 |
| `CN(C)C(=O)CCC[S+]([O-])Cc1ccc(F)c(F)c1` (stereo not shown) | -10.79 | -1.155 | 16.67 | 8.227 |
| `CCNC(=O)NC(=O)CSC(C)c1ccccc1F` (stereo not shown) | 13.48 | 5.406 | 18.45 | 0.1101 |
| `NC(=O)c1csc(N2C[C@@H](CN3CCCCC3)[C@@H](CO)C2)n1` | 2.482 | 2.973 | 15.29 | -9.168 |
| `CCc1c(C)nc2n(c1=O)CC(C(=O)Nc1ccccc1C)CS2` (stereo not shown) | -11.49 | 2.533 | -4.11 | -4.727 |
| `CC(C)c1cc(C(=O)N2C[C@H]3CC[C@@H]2CN(Cc2ccccn2)C3)no1` | - | 4.321 | 20.97 | - |
| `CN1CCCN(C(=O)c2cnc(C(C)(C)C)nc2O)CC1` | -3.866 | 8.591 | 8.197 | 5.217 |
| `Cc1ncn(CCNC(=O)Nc2ccc(F)c(Cl)c2)c(=O)c1C` | 1.919 | 5.078 | 9.333 | -11.92 |
| `COc1ccc2c(=O)n(CC3CCCN(C)C3)ccc2c1OC` (stereo not shown) | -18.91 | -2.819 | 12.12 | -3.06 |
| `CCc1ncc2c(n1)CN(CC(=O)NCCOc1ccccc1)CC2` | -4.965 | 7.253 | 19.7 | -3.704 |
| `CSc1nccc(N2CCC(=O)N(CC3CC3)C(C(C)C)C2)n1` (stereo not shown) | -31.47 | -7.072 | 8.8 | 4.055 |
| `CC(C)(C)c1n[nH]c(C2CN(Cc3ncc[nH]3)CCO2)n1` (stereo not shown) | -7.985 | 0.1998 | 9.677 | -36.85 |
| `[H][C@]12CCC[C@@H](OCc3cccnc3)[C@]1([H])CN(C(=O)c1ccnnc1)C2` | -16.8 | - | - | 4.282 |
| `Cc1cc(CN2C[C@@H]3CN(C(=O)c4ccco4)CCO[C@@H]3C2)no1` | - | 2.162 | 12.28 | - |
| `CN(C)Cc1nn(C)c2c1CN(C(=O)Nc1cccc(F)c1)C2` | - | 4.385 | 24.79 | -12.72 |
| `Cc1cccc2c1OCCC2NCc1c(C(C)C)nn(C)c1N(C)C` (stereo not shown) | -27.6 | 1.852 | 14.29 | 12.91 |
| `O=C1CCC(=O)N1CCn1nnc(-c2cccc(Cl)c2)n1` | -17.15 | 3.802 | 9.326 | 0.1147 |
| `Cn1cc(CNC2CCc3ncnn3C2)c(-c2ccncc2)n1` (stereo not shown) | 1.796 | 0.527 | 12.12 | 1.79 |
| `COCCOc1ccccc1C(=O)N1CCCC(c2cc(C)[nH]n2)C1` (stereo not shown) | -6.39 | -0.6281 | 13.16 | -5.194 |
| `COCc1nc2ncc3c(=O)n(-c4ccc(OC)cc4)ccc3n2n1` | -40.5 | -1.736 | -3.191 | 2.359 |
| `CCC(CO)N(Cc1ccco1)C(=O)c1ccccc1SC` (stereo not shown) | -34.69 | -0.1119 | 13.98 | 1.095 |
| `Cn1cnc2c1C(C(=O)N1CCCO1)N(C(=O)c1ccccc1)CC2` (stereo not shown) | -45.09 | 5.084 | 17.09 | 4.202 |
| `COc1ccc(NC(=O)N(CC2CCOC2)C2CC2)cn1` (stereo not shown) | -2.588 | -1.185 | 13.89 | 3.13 |
| `CCOCC1CN(C(=O)COc2ccccc2C)Cc2ncn(C)c21` (stereo not shown) | - | 5.209 | 15.52 | - |
| `COc1ncccc1-c1cc(C(N)=O)ccn1` | -43.44 | 0.6236 | -1.961 | -6.874 |
| `CC(C#N)CN(C)Cc1nc2c(cnn2C)c(=O)[nH]1` (stereo not shown) | 4.065 | 0.4484 | 15.74 | -2.973 |